Results reported in article doi:10.1101/2025.09.02.673730.
No constants are given. Whether binding was seen depends on the method and setting. Binding can be weak; no strength is given. Sequences can lack the tags named with a protein. Each block holds one binder with its values, some of them ahead of it.

Target: free tubulin (α/β-tubulin heterodimer) (bovine)
Experiment: mass photometry

- binding: no binding (tested: 10 or 20 nM)
B1: Disordered domain of CKAP2 (amino acids 61-345) fused to EGFP (domain or fragment, UniProt Q3V1H1 61-345)
chain: QISRDQKMITSEDRVQEGKKVVKLKTEVADKENIESTVEKNCIPLKAGEVTSSEIHNSKDNVQAVQLLSTRDDLPGQTVTLDPACHHKDNKKMQMTAEKPKQDSNVSKKRVLGYYHGQIVQSKINSFRKLPSVKGESLTTTKKLPTTVSKAMKAQSEPANTVSVKASTTAAATKFADAKPVSTASKDTLVRPPIRSLHSSSHGAAKQGLSRPLANVTVRKGMLDKESHRSEPVVSVVKAGSSQAPSRSIASKDAARTDSSNTRLMVKPKDTDQRRYTIAGASVHR

- binding: binds
B2: Saccharomyces cerevisiae Stu2 Δcc aa 1-648 (domain or fragment, UniProt P46675 1-648)
chain: MSGEEEVDYTTLPLEERLTYKLWKARLEAYKELNQLFRNSVGDISRDDNIQIYWRDPTLFAQYITDSNVVAQEQAIVALNSLIDAFASSSLKNAHNITLISTWTPLLVEKGLTSSRATTKTQSMSCILSLCGLDTSITQSVELVIPFFEKKLPKLIAAAANCVYELMAAFGLTNVNVQTFLPELLKHVPQLAGHGDRNVRSQTMNLIVEIYKVTGNNSDLLEEILFKKLKPIQVKDLHKLFAKVGDEPSSSKMLFEWEKRELEKKRSQEEEARKRKSILSNDEGEYQIDKDGDTLMGMETDMPPSKQQSGVQIDTFSMLPEETILDKLPKDFQERITSSKWKDRVEALEEFWDSVLSQTKKLKSTSQNYSNLLGIYGHIIQKDANIQAVALAAQSVELICDKLKTPGFSKDYVSLVFTPLLDRTKEKKPSVIEAIRKALLTICKYYDPLASSGRNEDMLKDILEHMKHKTPQIRMECTQLFNASMKEEKDGYSTLQRYLKDEVVPIVIQIVNDTQPAIRTIGFESFAILIKIFGMNTFVKTLEHLDNLKRKKIEETVKTLPNFSIASGSTHSTIETNKQTGPMENKFLLKKSSVLPSKRVASSPLRNDNKSKVNPIGSVASASKPSMVAANNKSRVLLTSKSLATPKN
